Like-named read-outs stand apart in the source and are kept apart here. At least one peptide structure holds a part that was inferred or is arguable (an end, a ring closure or a residue). Non-standard residues stand in square brackets, D forms with d. Residues, ends and D or L forms follow the SMILES beside them.
Tests used:
[1] = system: Mhc-Gal4/+;UAS-(CTG)480/+ flies; type: in vivo, Drosophila; conditions: for muscle area of IFMs vs control flies: flies 10 days of age
HSA^LR mice = experiment: Capzb transcript splicing (specificity control); type: in vivo
[2] = system: 103Y-Gal4/+;UAS-CTG(480)/+ flies; experiment: Lethality phenotype in pupae caused by expression of 480 CTG under 103Y-Gal4 (females born); type: in vivo, Drosophila
Experimental: The 120 vials that make up the chemical library were individually assayed on the lethality phenotype in pupae caused by the expression of 480 CTG under the control of 103Y-Gal4 at a concentration of 80 μM. […] Thus, for positions O1, O2, O3, O4, O5 and O6 of the hexapeptide, a total of six, three, six, four, two and seven active amino acids were obtained, respectively (FIG. 2A). In order to perform the deconvolution, 10 of these 28 amino acids were selected, on the basis of their degree of activity in the biological assay (FIG. 2A). Finally, of the possible combinations, 16 sequences were selected to perform the synthesis of the defined hexapeptides (FIG. 2B). The selection of these 16 peptides was based on redundancy criteria between the physical and chemical properties of active amino acids in similar positions.
At 250 μM, the activity of the peptide decreased, possibly due to a toxic effect of the peptide at higher concentrations.
In order to determine the contribution of each of the p10 residues to their activity on CTG(480), an alanine scanning experiment was performed. These experiments are based on substituting every amino acid of the peptide with alanine and keeping the rest. Alanine is a small amino acid and, in general, not very active; this is why it is used for this type of studies. […]

FVB and HSA^SR mice = experiment: Serca1 exon 22 alternative splicing in control mice; type: in vivo; conditions: 4 weeks after injection of 10 μg of p10
DMPK DNA = experiment: Tryptophan intrinsic fluorescence extinction, DMPK DNA; type: binding; conditions: p10 5 μM; emission 351 nm; nucleic acid 2.5-12.5 μM
FAM-(CUG)4 RNA = experiment: Fluorescence gel retardation assay with FAM-(CUG)4; type: binding; conditions: p10 1 mM, FAM-(CUG)4 60 nM
[3] = system: AAG, CGG, CCUG and CAG repeats; experiment: Tryptophan extinction assay with repeats different from CUG; type: binding
Experimental: This figure illustrates an experiment which tested p10 and its capacity to bind to repeats different from CUG repeats, but which are also involved in diseases where the toxicity of RNAs with repeat expansions has been described. The tryptophan extinction assay was used, using (1) p10+AAG, CGG, CCUG and CAG at different RNA concentrations (5 μM, 7.5 μM and 10 μM).
On the other hand, as represented in FIG. 30, the peptides of the invention (particularly p10) have different binding affinities to hairpin loops formed by repeats other than CUG repeats, such as, for example AAG, CGG, CCUG and CAG. In this example, we tested p10 and its capacity to bind to repeats different from CUG repeats, but which are also involved in diseases where the toxicity of RNAs with long repeats has been described. […] Three assay points were used (3 different probe concentrations), with two measurements in each. The results were normalised to the signal offered by p10 alone. […] A single assay point is shown (probe at 10 μM). The results are shown non-normalised in order to be able to include the initial value of the peptides tested.

DMPK-CUG4 RNA = experiment: Tryptophan intrinsic fluorescence extinction, DMPK-CUG4; type: binding; conditions: p10 5 μM; emission 351 nm; nucleic acid 2.5-12.5 μM
CUG60 RNA = experiment: Circular dichroism of CUG60 RNA; type: binding; conditions: RNA 1 μM; p10 0.1-20 μM; MblZF 1 and 1.5 μM; ppyawa 0.5 and 1 μM; payawe 1 μM
Experimental: However, this effect was not reverted when the RNA was incubated jointly with MblZF and p10, regardless of the order of addition (C).
In order to study possible changes in the secondary structure of RNA induced by p10, in the first place we performed a circular dichroism (CD) experiment, using an RNA with unlabelled CUG repeats (CUG60). The circular dichroism of nucleic acids is caused by the stacking of the bases that make up the sequence thereof. Consequently, when a molecule binds to RNA, affecting the structure thereof, a change is detected in its CD spectrum. […] When we incubated the RNA with increasing concentrations of the peptide of SEQ ID NO: 10 (0.1 μM, 0.5 μM, 1 μM, 10 μM and 20 μM), a similar effect was observed (FIG. 27B). During the readings, the RNA was kept in the cuvette inside the dichrograph at 10° C. Throughout the 3 hours of each experiment, it was possible for the RNA to have been degraded; this would explain the decrease in the intensity of the signal observed. In order to rule out this possibility, the CD spectrum of CUG60 RNA was measured at times 0 and 3 h, having kept the CUG60 RNA at 10° C. at all times.

C[C@@H](NC(=O)[C@@H](Cc1ccc(O)cc1)NC(=O)[C@H]1CCCN1C(=O)[C@H]1CCCN1)C(=O)N[C@H](Cc1c[nH]c2ccccc12)C(=O)N[C@H](CCC(=O)O)C(=O)O [p10] (H-[dP][dP][dY][dA][dW][dE]-OH)
muscle area of IFMs vs control flies ([1]; 500 μM): smaller than in the control flies | muscle area of IFMs vs control flies ([1]; between 62.5 μM and 250 μM): significant increase in the muscle area | histology of IFM cross-sections ([1]; flies 3-4 days of age, oral p10): improvement in the muscles at the histological level | splicing of the muscular transcripts of the Capzb gene (HSA^LR mice): did not affect the splicing | activity in dose-response assay (survival) ([2]; 20 μM and 40 μM): did not show any activity | activity in dose-response assay (survival) ([2]; 250 μM): decreased | inclusion percentage of exon 22 of Serca1 (FVB and HSA^SR mice): 100% | slope of fluorescence extinction curve (DMPK DNA): −0.028±0.002 | affinity of binding to short-size repeats vs FAM-(CUG)23 (FAM-(CUG)4 RNA): lower affinity | levels of binding to other types of repetitive sequences ([3]; RNA probe 5, 7.5, 10 μM): greater in the presence of CGG and CCUG repeats | change of tryptophan fluorescence intensity in the presence of repeats ([3]; RNA probe 5, 7.5, 10 μM (ppyawa: 10 μM)): decrease in intensity | slope of fluorescence extinction curve (DMPK-CUG4 RNA): −0.034±0.003 | change of circular dichroism spectrum of CUG60 (CUG60 RNA): reducing the emission peak of RNA

— patent US20130143825A1, “COMPOUNDS FOR USE IN THE TREATMENT OF DISEASES BASED ON THE EXPRESSION OF TOXIC TRANSCRIPTS” (UNIVERSITAT DE VALENCIA, priority 2010, published 2013)
